Data reported in article PMC3297634.
These are yes or no findings as the source states them, for the method shown. In cells and extracts the contact can be indirect. Here binding means that the protein was enriched with, or labelled near, the bait; the list need not be complete.

Biological target: RLIP (bait of the mass spectrometry analysis)
Experiment: affinity purification with mass spectrometry; liquid chromatography/electrospray ionization tandem mass spectrometry of proteins interacting with RLIP; how the complexes were isolated is not told

Row | binding | Binder
1 | binds | Reps1 (identified by mass spectrometry) (protein, UniProt Q96D71 1-796) MEGLTLSDAEQKYYSDLFSYCDIESTKKVVVNGRVLELFRAAQLPNDVVLQIMELCGATRLGYFGRSQFYIALKLVAVAQSGFPLRVESINTVKDLPLPRFVASKNEQESRHAASYSSDSENQGSYSGVIPPPPGRGQVKKGSVSHDTVQPRTSADAQEPASPVVSPQQSPPTSPHTWRKHSRHPSGGNSERPLAGPGPFWSPFGEAQSGSSAGDAVWSGHSPPPPQENWVSFADTPPTSTLLTMHPASVQDQTTVRTVASATTAIEIRRQSSSYDDPWKITDEQRQYYVNQFKTIQPDLNGFIPGSAAKEFFTKSKLPILELSHIWELSDFDKDGALTLDEFCAAFHLVVARKNGYDLPEKLPESLMPKLIDLEDSADVGDQPGEVGYSGSPAEAPPSKSPSMPSLNQTWPELNQSSEQWETFSERSSSSQTLTQFDSNIAPADPDTAIVHPVPIRMTPSKIHMQEMELKRTGSDHTNPTSPLLVKPSDLLEENKINSSVKFASGNTVADGYSSSDSFTSDPEQIGSNVTRQRSHSGTSPDNTAPPPPPPRPQPSHSRSSSLDMNRTFTVTTGQQQAGVVAHPPAVPPRPQPSQAPGPAVHRPVDADGLITHTSTSPQQIPEQPNFADFSQFEVFAASNVNDEQDDEAEKHPEVLPAEKASDPASSLRVAKTDSKTEEKTAASAPANVSKGTTPLAPPPKPVRRRLKSEDELRPEVDEHTQKTGVLAAVLASQPSIPRSVGKDKKAIQASIRRNKETNTVLARLNSELQQQLKDVLEERISLEVQLEQLRPFSHL
2 | binds | POB1/Reps2 (protein, UniProt Q8NFH8 1-660) MEAAAAAAAAAAAAAAAGGGCGSGPPPLLLSEGEQQCYSELFARCAGAAGGGPGSGPPEAARVAPGTATAAAGPVADLFRASQLPAETLHQITELCGAKRVGYFGPTQFYIALKLIAAAQSGLPVRIESIKCELPLPRFMMSKNDGEIRFGNPAELHGTKVQIPYLTTEKNSFKRMDDEDKQQETQSPTMSPLASPPSSPPHYQRVPLSHGYSKLRSSAEQMHPAPYEARQPLVQPEGSSSGGPGTKPLRHQASLIRSFSVERELQDNSSYPDEPWRITEEQREYYVNQFRSLQPDPSSFISGSVAKNFFTKSKLSIPELSYIWELSDADCDGALTLPEFCAAFHLIVARKNGYPLPEGLPPTLQPEYLQAAFPKPKWDCQLFDSYSESLPANQQPRDLNRMEKTSVKDMADLPVPNQDVTSDDKQALKSTINEALPKDVSEDPATPKDSNSLKARPRSRSYSSTSIEEAMKRGEDPPTPPPRPQKTHSRASSLDLNKVFQPSVPATKSGLLPPPPALPPRPCPSQSEQVSEAELLPQLSRAPSQAAESSPAKKDVLYSQPPSKPIRRKFRPENQATENQEPSTAASGPASAATMKPHPTVQKQSSKQKKAIQTAIRKNKEANAVLARLNSELQQQLKEVHQERIALENQLEQLRPVTVL
